Results on one substance are retold here after PMC3709894.

Results are given in words; binding and its absence hold for the method and conditions named. In cells and extracts the contact can be indirect. Binding can be weak; no strength is given. Where a sequence is shown, tags or fusion partners need not be part of it.

This test concerns the target T1, Flag-Rad21 triple mutant (TM) L385A F389A T390A (human) (UniProt O60216).
T1 sequence: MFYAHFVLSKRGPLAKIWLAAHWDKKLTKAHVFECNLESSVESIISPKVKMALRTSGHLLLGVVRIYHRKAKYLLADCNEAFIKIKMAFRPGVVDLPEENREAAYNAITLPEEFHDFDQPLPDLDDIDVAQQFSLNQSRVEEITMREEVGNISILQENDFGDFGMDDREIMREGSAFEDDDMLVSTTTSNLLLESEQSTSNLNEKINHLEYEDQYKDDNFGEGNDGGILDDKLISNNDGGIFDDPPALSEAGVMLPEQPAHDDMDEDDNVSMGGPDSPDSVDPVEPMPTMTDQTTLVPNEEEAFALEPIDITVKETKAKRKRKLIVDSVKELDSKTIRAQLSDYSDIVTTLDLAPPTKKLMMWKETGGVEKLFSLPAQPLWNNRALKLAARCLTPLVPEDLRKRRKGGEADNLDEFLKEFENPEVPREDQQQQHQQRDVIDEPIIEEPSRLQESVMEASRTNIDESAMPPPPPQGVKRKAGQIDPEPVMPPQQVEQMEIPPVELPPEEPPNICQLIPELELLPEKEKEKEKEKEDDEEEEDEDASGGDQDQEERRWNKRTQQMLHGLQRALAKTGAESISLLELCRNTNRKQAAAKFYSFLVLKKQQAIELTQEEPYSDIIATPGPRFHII
The experiment in a line: co-IP; 293 T cells transfected with pFlag CMV2 Rad21 constructs; IP of Flag-Rad21 (Flag mAb agarose beads) from whole cell lysate, blots of endogenous cohesin subunits and associated proteins.

On to “endogenous Pds5 (human (endogenous in 293 T))”, for which the binding result is “binds”.
